Results as given in paper PMC4678874.
These are yes or no findings as the source states them, for the method shown. For some assays here: Binding seen in cells or lysates may run through a third protein. Some entries that bind do so weakly or less than the wild type. For some assays here: Sequences can lack the tags named with a protein. One block for each molecule: values may come before it.

Key:
[1] = target: T1, wild-type HDA6 tagged with cYFP (Arabidopsis) (UniProt Q9FML2); experiment: split reporter; BiFC; MET1-nYFP with HDA6, hda6-9 or hda6-10 tagged with cYFP, Agro-infiltrated into leaves of N. benthamiana; confocal microscopy two days later
T1 sequence: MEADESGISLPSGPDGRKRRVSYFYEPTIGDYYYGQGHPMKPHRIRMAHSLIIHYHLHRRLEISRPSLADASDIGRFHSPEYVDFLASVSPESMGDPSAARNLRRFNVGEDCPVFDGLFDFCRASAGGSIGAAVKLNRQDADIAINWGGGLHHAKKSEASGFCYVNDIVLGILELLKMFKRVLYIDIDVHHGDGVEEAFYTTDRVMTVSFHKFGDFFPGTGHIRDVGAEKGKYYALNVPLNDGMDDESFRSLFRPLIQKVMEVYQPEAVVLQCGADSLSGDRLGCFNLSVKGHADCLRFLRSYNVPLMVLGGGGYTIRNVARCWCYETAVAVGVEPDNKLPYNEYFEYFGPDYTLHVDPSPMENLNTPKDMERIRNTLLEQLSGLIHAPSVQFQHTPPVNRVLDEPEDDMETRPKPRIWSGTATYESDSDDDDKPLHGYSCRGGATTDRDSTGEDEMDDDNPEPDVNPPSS

[2] = target: T2, HDA6–10 tagged with cYFP (Arabidopsis) (UniProt Q9FML2); experiment: as above
T2 sequence: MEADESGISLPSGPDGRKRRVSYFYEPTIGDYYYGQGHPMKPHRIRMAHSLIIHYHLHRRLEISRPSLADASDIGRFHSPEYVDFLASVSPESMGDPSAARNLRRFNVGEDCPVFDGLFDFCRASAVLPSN

[3] = target: T3, mutated hda6–10 (1–131aa) (Arabidopsis) (UniProt Q9FML2); experiment: two-hybrid; Matchmaker Gold; HDA6 forms as baits in pGBKT7 (Y2HGold), MET1 (R2FB) as prey in pGADT7 (Y187), mating; lower stringent plates SD/-Trp/-Leu with X-alpha-gal
T3 sequence: T2 sequence

[4] = target: T4, wild-type HDA6 (1–471aa) (Arabidopsis) (UniProt Q9FML2); experiment: two-hybrid; Matchmaker Gold; HDA6 forms as baits in pGBKT7 (Y2HGold), MET1 (R2FB) as prey in pGADT7 (Y187), mating; higher stringent plates SD/-Trp/-Leu/-Ade/-His with X-alpha-gal and Aureobasidin A
T4 sequence: T1 sequence

[5] = target: T3, mutated hda6–10 (1–131aa) (Arabidopsis); experiment: as above

binding [1]: binds
binding [2]: binds
Molecule: full-length MET1 tagged with nYFP (from UniProt P34881 1-1534)

binding [3]: binds
binding [4]: binds
binding [5]: binds
B1: MET1 (R2FB, aa.735–869) (domain or fragment, UniProt P34881 735-869)
chain: EMVAVGGAVTLEVDDPDEMPAIYFVEYMFESTDHCKMLHGRFLQRGSMTVLGNAANERELFLTNECMTTQLKDIKGVASFEIRSRPWGHQYRKKNITADKLDWARALERKVKDLPTEYYCKSLYSPERGGFFSLP
